PubChem BioAssay AID1508597 | Cure First, 2020
In all, the deposit lists about 2,100 reagents; this is a random part of them. 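Calls flag viability under 80% in either arm, not effects specific to rucaparib; the reference for percent is not stated.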 Not stated in the record: the 100% reference.

Assay: 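Genes whose silencing sensitises or protects ovarian cancer cells against rucaparib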 (primary screen)
System: human ovarian carcinoma lines grown from tumours: OCI-P5x (papillary serous) and OCI-C5x (clear cell)
Reagent: siRNA pool against human genes, 1.25 pmol siRNA per well
Time to read-out: 72 h or 96 h, depending on the cell culture
Treatment: rucaparib 20 µM (about IC30) or vehicle, present until read-out
Measurement: 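ATP luminescence measured at 72 or 96 h according to the culture, then normalised and expressed as percent viability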
Direction: viability, normalised: higher = more viable cells remaining
Call rule: 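a well counts as a hit if its normalised viability is under 80 percent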
Calls: active = viability under 80%; inactive = viability 80% or more

PRC1, rucaparib or vehicle Rucaparib, cell line OCI-C5x (clear cell), technical replicate 1 gave viability, normalised (%) = 60.5; active.
PRC1, rucaparib or vehicle Rucaparib, cell line OCI-C5x (clear cell), technical replicate 2 showed viability, normalised (%) = 59; active.
PRC1, rucaparib or vehicle Rucaparib, cell line OCI-C5x (clear cell), technical replicate 3 gave viability, normalised (%) = 55.6; active.
PRC1, rucaparib or vehicle Rucaparib, cell line OCI-P5x (serous), technical replicate 1 gave viability, normalised (%) = 82.1; inactive.
For PRC1, rucaparib or vehicle Rucaparib, cell line OCI-P5x (serous), technical replicate 2, the entry reads viability, normalised (%) = 59.5; active.
For PRC1, rucaparib or vehicle Rucaparib, cell line OCI-P5x (serous), technical replicate 3 the deposit lists viability, normalised (%) = 85; inactive.
With PRC1, rucaparib or vehicle Vehicle, cell line OCI-C5x (clear cell), technical replicate 1, the values are viability, normalised (%) = 72.7; active.
PRC1, rucaparib or vehicle Vehicle, cell line OCI-C5x (clear cell), technical replicate 2 scored viability, normalised (%) = 59.3; active.
PRC1, rucaparib or vehicle Vehicle, cell line OCI-C5x (clear cell), technical replicate 3 showed viability, normalised (%) = 50.5; active.
PRC1, rucaparib or vehicle Vehicle, cell line OCI-P5x (serous), technical replicate 1 showed viability, normalised (%) = 54.1; active.
PRC1, rucaparib or vehicle Vehicle, cell line OCI-P5x (serous), technical replicate 2 showed viability, normalised (%) = 52.6; active.
PRC1, rucaparib or vehicle Vehicle, cell line OCI-P5x (serous), technical replicate 3 scored viability, normalised (%) = 59; active.
HIF1A, rucaparib or vehicle Rucaparib, cell line OCI-C5x (clear cell), technical replicate 1 gave viability, normalised (%) = 50.3; active.
For HIF1A, rucaparib or vehicle Rucaparib, cell line OCI-C5x (clear cell), technical replicate 2, the values are viability, normalised (%) = 45.5; active.
With HIF1A, rucaparib or vehicle Rucaparib, cell line OCI-C5x (clear cell), technical replicate 3 the deposit lists viability, normalised (%) = 55.3; active.
HIF1A, rucaparib or vehicle Rucaparib, cell line OCI-P5x (serous), technical replicate 1 scored viability, normalised (%) = 55.3; active.
For HIF1A, rucaparib or vehicle Rucaparib, cell line OCI-P5x (serous), technical replicate 2 the deposit lists viability, normalised (%) = 53.1; active.
HIF1A, rucaparib or vehicle Rucaparib, cell line OCI-P5x (serous), technical replicate 3 scored viability, normalised (%) = 47.7; active.
HIF1A, rucaparib or vehicle Vehicle, cell line OCI-C5x (clear cell), technical replicate 1 showed viability, normalised (%) = 64.4; active.
HIF1A, rucaparib or vehicle Vehicle, cell line OCI-C5x (clear cell), technical replicate 2 gave viability, normalised (%) = 58.1; active.
HIF1A, rucaparib or vehicle Vehicle, cell line OCI-C5x (clear cell), technical replicate 3 gave viability, normalised (%) = 58.2; active.
With HIF1A, rucaparib or vehicle Vehicle, cell line OCI-P5x (serous), technical replicate 1, the entry reads viability, normalised (%) = 78.4; active.
With HIF1A, rucaparib or vehicle Vehicle, cell line OCI-P5x (serous), technical replicate 2, the values are viability, normalised (%) = 91.6; inactive.
HIF1A, rucaparib or vehicle Vehicle, cell line OCI-P5x (serous), technical replicate 3 showed viability, normalised (%) = 77.2; active.
MECP2, rucaparib or vehicle Rucaparib, cell line OCI-C5x (clear cell), technical replicate 1 scored viability, normalised (%) = 43; active.
For MECP2, rucaparib or vehicle Rucaparib, cell line OCI-C5x (clear cell), technical replicate 2 the deposit lists viability, normalised (%) = 39.1; active.
With MECP2, rucaparib or vehicle Rucaparib, cell line OCI-C5x (clear cell), technical replicate 3, the entry reads viability, normalised (%) = 54.8; active.
For MECP2, rucaparib or vehicle Rucaparib, cell line OCI-P5x (serous), technical replicate 1, the entry reads viability, normalised (%) = 38; active.
For MECP2, rucaparib or vehicle Rucaparib, cell line OCI-P5x (serous), technical replicate 2, the values are viability, normalised (%) = 44.7; active.
MECP2, rucaparib or vehicle Rucaparib, cell line OCI-P5x (serous), technical replicate 3 showed viability, normalised (%) = 38.3; active.
MECP2, rucaparib or vehicle Vehicle, cell line OCI-C5x (clear cell), technical replicate 1 showed viability, normalised (%) = 45.2; active.
With MECP2, rucaparib or vehicle Vehicle, cell line OCI-C5x (clear cell), technical replicate 2 the deposit lists viability, normalised (%) = 61.9; active.
With MECP2, rucaparib or vehicle Vehicle, cell line OCI-C5x (clear cell), technical replicate 3 the deposit lists viability, normalised (%) = 46.5; active.
MECP2, rucaparib or vehicle Vehicle, cell line OCI-P5x (serous), technical replicate 1 scored viability, normalised (%) = 49.9; active.
For MECP2, rucaparib or vehicle Vehicle, cell line OCI-P5x (serous), technical replicate 2, the values are viability, normalised (%) = 61.7; active.
For MECP2, rucaparib or vehicle Vehicle, cell line OCI-P5x (serous), technical replicate 3, the entry reads viability, normalised (%) = 68.5; active.
With PCDHB13, rucaparib or vehicle Rucaparib, cell line OCI-C5x (clear cell), technical replicate 1 the deposit lists viability, normalised (%) = 43.3; active.
PCDHB13, rucaparib or vehicle Rucaparib, cell line OCI-C5x (clear cell), technical replicate 2 scored viability, normalised (%) = 51.4; active.
PCDHB13, rucaparib or vehicle Rucaparib, cell line OCI-C5x (clear cell), technical replicate 3 gave viability, normalised (%) = 41.1; active.
PCDHB13, rucaparib or vehicle Rucaparib, cell line OCI-P5x (serous), technical replicate 1 showed viability, normalised (%) = 30; active.
With PCDHB13, rucaparib or vehicle Rucaparib, cell line OCI-P5x (serous), technical replicate 2, the values are viability, normalised (%) = 22.1; active.
For PCDHB13, rucaparib or vehicle Rucaparib, cell line OCI-P5x (serous), technical replicate 3, the entry reads viability, normalised (%) = 29.5; active.
PCDHB13, rucaparib or vehicle Vehicle, cell line OCI-C5x (clear cell), technical replicate 1 gave viability, normalised (%) = 43.5; active.
For PCDHB13, rucaparib or vehicle Vehicle, cell line OCI-C5x (clear cell), technical replicate 2 the deposit lists viability, normalised (%) = 33.3; active.
PCDHB13, rucaparib or vehicle Vehicle, cell line OCI-C5x (clear cell), technical replicate 3 showed viability, normalised (%) = 34.3; active.
For PCDHB13, rucaparib or vehicle Vehicle, cell line OCI-P5x (serous), technical replicate 1, the values are viability, normalised (%) = 31.9; active.
With PCDHB13, rucaparib or vehicle Vehicle, cell line OCI-P5x (serous), technical replicate 2, the values are viability, normalised (%) = 32.7; active.
PCDHB13, rucaparib or vehicle Vehicle, cell line OCI-P5x (serous), technical replicate 3 gave viability, normalised (%) = 53.5; active.

6 entries already listed, arranged by “viability, normalised (%)”, descending.
HIF1A, rucaparib or vehicle Vehicle, cell line OCI-P5x (serous), technical replicate 3 — viability, normalised (%) = 77.2; outcome = active
MECP2, rucaparib or vehicle Rucaparib, cell line OCI-C5x (clear cell), technical replicate 3 — viability, normalised (%) = 54.8; outcome = active
MECP2, rucaparib or vehicle Rucaparib, cell line OCI-P5x (serous), technical replicate 2 — viability, normalised (%) = 44.7; outcome = active
MECP2, rucaparib or vehicle Rucaparib, cell line OCI-C5x (clear cell), technical replicate 1 — viability, normalised (%) = 43; outcome = active
MECP2, rucaparib or vehicle Rucaparib, cell line OCI-C5x (clear cell), technical replicate 2 — viability, normalised (%) = 39.1; outcome = active
MECP2, rucaparib or vehicle Rucaparib, cell line OCI-P5x (serous), technical replicate 1 — viability, normalised (%) = 38; outcome = active
